Values quoted from earlier work in patent US20030083227A1, “Novel combination therapy to treat glaucoma” (priority 1999, published 2003).

Test system: pupillary size
Details: 1%, unilateral topical application; cited from earlier work

## CC[C@@H]1C(=O)OC[C@@H]1Cc1cncn1C [pilocarpine]
  effect on pupillary size in the contralateral eye: does not alter
